Here are results for one compound from patent EP0028716B1, “Motility increasing peptides and their use” (HOECHST AKTIENGESELLSCHAFT, priority 1979, dated 1986).

This assay has as its system Motorik des Magen-Darmtrakts und der ableitenden Harnwege. As to the kind of experiment: Stimulation of the motility of the gastrointestinal tract and the efferent urinary tract. On the set-up: species or system Hund. As to conditions: in vivo. The method, then:
Die erfindungsgemässen Peptide stimulieren die Motorik des Magen-Darmtrakts und der ableitenden Harnwege beim Hund und beim Menschen. Sie steigern den Ruhetonus und die segmentale Kontraktionsaktivität des Darmes und fördern dadurch sekundär auch die Wasserresorption aus dem Darmlumen (lleum).
Die erfindungsgemässen Peptide wirken intravenös bereits in einer Dosierung von 10 ng/kg und können unbedenklich auch in höherer Dosierung angewandt werden. Auch Morphin übt unter geeigneten Bedingungen eine ähnliche Wirkung aus, jedoch erst in einer etwa 50 fach höheren Dosierung. Das parasympathomimetisch wirkende Carbaminoylcholin benötigt für die gleiche Wirkung etwa eine 10 fache Dosierung. So zählen die erfindungsgemässen Peptide zu den stärksten Effektoren der Motorik des Magen-Darmtrakts und der ableitenden Harnwege. Ihre morphinähnliche Wirkung ist zwar bekannt, doch überschreiten bei der geringen erforderlichen Dosierung weder nach intravenöser, subcutaner noch intranasaler Anwendung die wirksamen Dosen die Blut-Hirn-Schranke. Sie üben deshalb in der für den erfindungsgemässen Zweck erforderlichen Menge keine Wirkungen im Zentralnervensystem aus.

As to `CN1CC[C@]23c4c5ccc(O)c4O[C@H]2[C@@H](O)C=C[C@H]3[C@H]1C5` [Morphin], the “höhere Dosierung für ähnliche / gleiche Wirkung” value is recorded as approximately 50 fach.
